Results are given in words; binding and its absence hold for the method and conditions named. Binding seen in cells or lysates may run through a third protein. Some binding calls cover weakened binding; strength is not graded here.
Biological target: T1, endogenous MIC60 (rat brain) (rat (endogenous in rat brain)) (UniProt Q3KR86)
T1 sequence: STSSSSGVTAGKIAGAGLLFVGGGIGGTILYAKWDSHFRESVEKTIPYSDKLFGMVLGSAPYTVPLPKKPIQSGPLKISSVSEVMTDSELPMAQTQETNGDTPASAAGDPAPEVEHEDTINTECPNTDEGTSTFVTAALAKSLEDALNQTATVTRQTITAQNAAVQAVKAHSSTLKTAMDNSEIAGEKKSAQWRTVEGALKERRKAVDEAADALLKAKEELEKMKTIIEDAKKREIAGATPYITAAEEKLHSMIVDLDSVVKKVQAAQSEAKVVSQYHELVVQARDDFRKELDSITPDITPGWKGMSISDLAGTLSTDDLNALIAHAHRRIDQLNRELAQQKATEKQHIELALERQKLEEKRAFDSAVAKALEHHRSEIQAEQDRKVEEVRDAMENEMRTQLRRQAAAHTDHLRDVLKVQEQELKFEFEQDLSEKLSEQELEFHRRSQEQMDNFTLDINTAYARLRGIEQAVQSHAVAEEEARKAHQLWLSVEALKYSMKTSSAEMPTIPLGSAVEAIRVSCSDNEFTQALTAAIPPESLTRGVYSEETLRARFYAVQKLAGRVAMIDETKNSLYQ
Experiment: co-IP; endogenous proteins from rat brain lysate; pre-cleared, 2 h with the antibody to MIC60 at 4 °C, then overnight with Protein-G agarose beads; Western blot for PDE2A

binding: binds
B1: endogenous PDE2A (rat brain) (enzyme, UniProt Q01062 1-928)
chain: MVLVLHHILIAVVQFLRRGQQVFLKPDEPPPQPCADSLQDALLSLGAVIDIAGLRQAAKDALSAVLPKVETVYTYLVDGESRLVCEDPPHELPQEGKIREAVISRKRLSCDGLGPSDLLGKPLARLVAPLAPDTQVLVIPLLDKETGTVAAVILVHCGQLSDSEEQSLQVVEKHALVALQRVQALQQRRPEAVQNTSADPSEDQKDEKGYTAHDRKILQLCGELYDLDATSLQLKVLRYLQQETQATHCCLLLVSEDNLQLSCKVIGEKVLGEEVSFPLTMGRLGQVVEDKQCIQLKDLTSDDVQQLQNMLGCELRAMLCVPVISRATDQVVALACAFNKLGGDFFTDEDERAIQHCFHYTGTVLTSTLAFQKEQKLKCECQALLQVAKNLFTHLDDVSVLLQEIITEARNLSNAEICSVFLLDQNELVAKVFDGGVVDDESYEIRIPADQGIAGHVATTGQILNIPDAYAHPLFYRGVDDSTGFRTRNILCFPIKNENQEVIGVAELVNKINGPWFSKFDEDLATAFSIYCGISIAHSLLYKKVNEAQYRSHLANEMMMYHMKVSDDEYTKLLHDGIQPVAAIDSNFANFTYTPRSLPEDDTSMAILSMLQDMNFINNYKIDCPTLARFCLMVKKGYRDPPYHNWMHAFSVSHFCYLLYKNLELSNYLEDIEIFALFISCMCHDLDHRGTNNSFQVASKSVLAALYSSEGSVMERHHFAQAIAILNTHGCNIFDHFSRKDYQRMLDLMRDIILATDLAHHLRIFKDLQKMAEVGYDRNNKQHHRLLLCLLMTSCDLSDQTKGWKTTRKIAELIYKEFFSQGDLEKAMGNRPMEMMDREKAYIPELQISFMEHIAMPIYKLLQDLFPKAAELYERVASNREHWTKVSHKFTIRGLPSNNSLDFLDEEYEVPDLDVTRAPVNGCCSLEG
